In patent publication US20060257938A1, “Method of screening for drugs that block ligand binding to a lipid binding protein” (priority 2005, published 2006):

Assay: Baseline fluorescence ratio Ro of probe in absence of analyte
[1] = average baseline fluorescence ratio Ro of the clone probe, substitutions with respect to SEQ ID NO: 2
[2] = baseline fluorescence ratio of probe
[3] = baseline fluorescence ratio of probe, no fatty acid

| Molecule | AvgOfRo [1] | also measured |
| --- | --- | --- |
| 72V (protein, listed as Rattus norvegicus, PEPTIDE (1)...(131) wild-type rat intestinal fatty acid binding protein) AFDGTWKVDRNENYEKFMEKMGINVVKRKLGAHDNLKLTITQEGNKFTVKESSNFRNIDVVFELGVDFAYSVADGTELTGTWTMEGNKLVGKFKRVDNGKELIAVREISGNELIQTYTYEGVEAKRIFKKE | 0.09 | – |
| 72Y (protein, listed as Rattus norvegicus, PEPTIDE (1)...(131) wild-type rat intestinal fatty acid binding protein) AFDGTWKVDRNENYEKFMEKMGINVVKRKLGAHDNLKLTITQEGNKFTVKESSNFRNIDVVFELGVDFAYSYADGTELTGTWTMEGNKLVGKFKRVDNGKELIAVREISGNELIQTYTYEGVEAKRIFKKE | 0.39 | Ro [2]: 0.386 |
| 73E, 72A (protein, listed as Rattus norvegicus, PEPTIDE (1)...(131) wild-type rat intestinal fatty acid binding protein) AFDGTWKVDRNENYEKFMEKMGINVVKRKLGAHDNLKLTITQEGNKFTVKESSNFRNIDVVFELGVDFAYSAEDGTELTGTWTMEGNKLVGKFKRVDNGKELIAVREISGNELIQTYTYEGVEAKRIFKKE | 0.23 | – |
| 73F, 72A (protein, listed as Rattus norvegicus, PEPTIDE (1)...(131) wild-type rat intestinal fatty acid binding protein) AFDGTWKVDRNENYEKFMEKMGINVVKRKLGAHDNLKLTITQEGNKFTVKESSNFRNIDVVFELGVDFAYSAFDGTELTGTWTMEGNKLVGKFKRVDNGKELIAVREISGNELIQTYTYEGVEAKRIFKKE | 0.33 | Ro [3]: 0.330 |
| 73G, 72A (protein, listed as Rattus norvegicus, PEPTIDE (1)...(131) wild-type rat intestinal fatty acid binding protein) AFDGTWKVDRNENYEKFMEKMGINVVKRKLGAHDNLKLTITQEGNKFTVKESSNFRNIDVVFELGVDFAYSAGDGTELTGTWTMEGNKLVGKFKRVDNGKELIAVREISGNELIQTYTYEGVEAKRIFKKE | 0.22 | – |
| 73H, 72A (protein, listed as Rattus norvegicus, PEPTIDE (1)...(131) wild-type rat intestinal fatty acid binding protein) AFDGTWKVDRNENYEKFMEKMGINVVKRKLGAHDNLKLTITQEGNKFTVKESSNFRNIDVVFELGVDFAYSAHDGTELTGTWTMEGNKLVGKFKRVDNGKELIAVREISGNELIQTYTYEGVEAKRIFKKE | 0.11 | – |
| 104F3, 72A (protein, listed as Rattus norvegicus, PEPTIDE (1)...(131) wild-type rat intestinal fatty acid binding protein) AFDGTWKVDRNENYEKFMEKMGINVVKRKLGAHDNLKLTITQEGNKFTVKESSNFRNIDVVFELGVDFAYSAADGTELTGTWTMEGNKLVGKFKRVDNGKELIFVREISGNELIQTYTYEGVEAKRIFKKE | – | AvgOfRo [3]: 0.34 |
| 73K, 72A (protein, listed as Rattus norvegicus, PEPTIDE (1)...(131) wild-type rat intestinal fatty acid binding protein) AFDGTWKVDRNENYEKFMEKMGINVVKRKLGAHDNLKLTITQEGNKFTVKESSNFRNIDVVFELGVDFAYSAKDGTELTGTWTMEGNKLVGKFKRVDNGKELIAVREISGNELIQTYTYEGVEAKRIFKKE | 0.24 | – |
| 73L, 72A (protein, listed as Rattus norvegicus, PEPTIDE (1)...(131) wild-type rat intestinal fatty acid binding protein) AFDGTWKVDRNENYEKFMEKMGINVVKRKLGAHDNLKLTITQEGNKFTVKESSNFRNIDVVFELGVDFAYSALDGTELTGTWTMEGNKLVGKFKRVDNGKELIAVREISGNELIQTYTYEGVEAKRIFKKE | 0.29 | Ro [2]: 0.294 |
| 73N, 72A (protein, listed as Rattus norvegicus, PEPTIDE (1)...(131) wild-type rat intestinal fatty acid binding protein) AFDGTWKVDRNENYEKFMEKMGINVVKRKLGAHDNLKLTITQEGNKFTVKESSNFRNIDVVFELGVDFAYSANDGTELTGTWTMEGNKLVGKFKRVDNGKELIAVREISGNELIQTYTYEGVEAKRIFKKE | 0.21 | – |
| 73P, 72A (protein, listed as Rattus norvegicus, PEPTIDE (1)...(131) wild-type rat intestinal fatty acid binding protein) AFDGTWKVDRNENYEKFMEKMGINVVKRKLGAHDNLKLTITQEGNKFTVKESSNFRNIDVVFELGVDFAYSAPDGTELTGTWTMEGNKLVGKFKRVDNGKELIAVREISGNELIQTYTYEGVEAKRIFKKE | 0.15 | – |
| 73Q, 72A (protein, listed as Rattus norvegicus, PEPTIDE (1)...(131) wild-type rat intestinal fatty acid binding protein) AFDGTWKVDRNENYEKFMEKMGINVVKRKLGAHDNLKLTITQEGNKFTVKESSNFRNIDVVFELGVDFAYSAQDGTELTGTWTMEGNKLVGKFKRVDNGKELIAVREISGNELIQTYTYEGVEAKRIFKKE | 0.27 | – |
| 73R, 72A (protein, listed as Rattus norvegicus, PEPTIDE (1)...(131) wild-type rat intestinal fatty acid binding protein) AFDGTWKVDRNENYEKFMEKMGINVVKRKLGAHDNLKLTITQEGNKFTVKESSNFRNIDVVFELGVDFAYSARDGTELTGTWTMEGNKLVGKFKRVDNGKELIAVREISGNELIQTYTYEGVEAKRIFKKE | 0.27 | – |
| 73S, 72A (protein, listed as Rattus norvegicus, PEPTIDE (1)...(131) wild-type rat intestinal fatty acid binding protein) AFDGTWKVDRNENYEKFMEKMGINVVKRKLGAHDNLKLTITQEGNKFTVKESSNFRNIDVVFELGVDFAYSASDGTELTGTWTMEGNKLVGKFKRVDNGKELIAVREISGNELIQTYTYEGVEAKRIFKKE | 0.20 | – |
| 73T, 72A (protein, listed as Rattus norvegicus, PEPTIDE (1)...(131) wild-type rat intestinal fatty acid binding protein) AFDGTWKVDRNENYEKFMEKMGINVVKRKLGAHDNLKLTITQEGNKFTVKESSNFRNIDVVFELGVDFAYSATDGTELTGTWTMEGNKLVGKFKRVDNGKELIAVREISGNELIQTYTYEGVEAKRIFKKE | 0.16 | Ro [2]: 0.157 |
| 73V, 72A (protein, listed as Rattus norvegicus, PEPTIDE (1)...(131) wild-type rat intestinal fatty acid binding protein) AFDGTWKVDRNENYEKFMEKMGINVVKRKLGAHDNLKLTITQEGNKFTVKESSNFRNIDVVFELGVDFAYSAVDGTELTGTWTMEGNKLVGKFKRVDNGKELIAVREISGNELIQTYTYEGVEAKRIFKKE | 0.30 | Ro [2]: 0.300; Ro [3]: 0.300 |
| 73W, 72A (protein, listed as Rattus norvegicus, PEPTIDE (1)...(131) wild-type rat intestinal fatty acid binding protein) AFDGTWKVDRNENYEKFMEKMGINVVKRKLGAHDNLKLTITQEGNKFTVKESSNFRNIDVVFELGVDFAYSAWDGTELTGTWTMEGNKLVGKFKRVDNGKELIAVREISGNELIQTYTYEGVEAKRIFKKE | 0.39 | – |
| 74A, 72A (protein, listed as Rattus norvegicus, PEPTIDE (1)...(131) wild-type rat intestinal fatty acid binding protein) AFDGTWKVDRNENYEKFMEKMGINVVKRKLGAHDNLKLTITQEGNKFTVKESSNFRNIDVVFELGVDFAYSAAAGTELTGTWTMEGNKLVGKFKRVDNGKELIAVREISGNELIQTYTYEGVEAKRIFKKE | 0.20 | – |
| 74C, 72A (protein, listed as Rattus norvegicus, PEPTIDE (1)...(131) wild-type rat intestinal fatty acid binding protein) AFDGTWKVDRNENYEKFMEKMGINVVKRKLGAHDNLKLTITQEGNKFTVKESSNFRNIDVVFELGVDFAYSAACGTELTGTWTMEGNKLVGKFKRVDNGKELIAVREISGNELIQTYTYEGVEAKRIFKKE | 0.45 | – |
| 74F, 72A (protein, listed as Rattus norvegicus, PEPTIDE (1)...(131) wild-type rat intestinal fatty acid binding protein) AFDGTWKVDRNENYEKFMEKMGINVVKRKLGAHDNLKLTITQEGNKFTVKESSNFRNIDVVFELGVDFAYSAAFGTELTGTWTMEGNKLVGKFKRVDNGKELIAVREISGNELIQTYTYEGVEAKRIFKKE | 0.25 | Ro [2]: 0.28; Ro [3]: 0.28 |
| 74L, 72A (protein, listed as Rattus norvegicus, PEPTIDE (1)...(131) wild-type rat intestinal fatty acid binding protein) AFDGTWKVDRNENYEKFMEKMGINVVKRKLGAHDNLKLTITQEGNKFTVKESSNFRNIDVVFELGVDFAYSAALGTELTGTWTMEGNKLVGKFKRVDNGKELIAVREISGNELIQTYTYEGVEAKRIFKKE | 0.17 | Ro [3]: 0.172 |
| 74N, 72A (protein, listed as Rattus norvegicus, PEPTIDE (1)...(131) wild-type rat intestinal fatty acid binding protein) AFDGTWKVDRNENYEKFMEKMGINVVKRKLGAHDNLKLTITQEGNKFTVKESSNFRNIDVVFELGVDFAYSAANGTELTGTWTMEGNKLVGKFKRVDNGKELIAVREISGNELIQTYTYEGVEAKRIFKKE | 0.16 | – |
| 74Q, 72A (protein, listed as Rattus norvegicus, PEPTIDE (1)...(131) wild-type rat intestinal fatty acid binding protein) AFDGTWKVDRNENYEKFMEKMGINVVKRKLGAHDNLKLTITQEGNKFTVKESSNFRNIDVVFELGVDFAYSAAQGTELTGTWTMEGNKLVGKFKRVDNGKELIAVREISGNELIQTYTYEGVEAKRIFKKE | 0.29 | – |
